Results are given in words; binding and its absence hold for the method and conditions named. Some entries that bind do so weakly or less than the wild type. Sequences can lack the tags named with a protein.
Tests used:
YBGK-GFP11 (E. coli) = target: T1, YBGK-GFP11 (E. coli) (UniProt P75745); test: tripartite split-GFP in E. coli colonies
T1 sequence: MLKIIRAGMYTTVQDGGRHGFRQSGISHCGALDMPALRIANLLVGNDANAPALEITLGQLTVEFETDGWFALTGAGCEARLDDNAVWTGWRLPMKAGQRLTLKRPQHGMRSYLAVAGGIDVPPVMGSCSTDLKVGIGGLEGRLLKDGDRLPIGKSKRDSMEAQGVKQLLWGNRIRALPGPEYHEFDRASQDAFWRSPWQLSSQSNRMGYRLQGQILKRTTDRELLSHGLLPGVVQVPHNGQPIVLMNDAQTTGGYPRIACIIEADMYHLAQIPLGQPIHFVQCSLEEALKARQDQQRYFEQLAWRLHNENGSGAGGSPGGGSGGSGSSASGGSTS

Amino acid sequences for entries named in this document (tags omitted). A change or cut given only in a name is not applied to a line headed by its entry.
UniProt P0AAV4: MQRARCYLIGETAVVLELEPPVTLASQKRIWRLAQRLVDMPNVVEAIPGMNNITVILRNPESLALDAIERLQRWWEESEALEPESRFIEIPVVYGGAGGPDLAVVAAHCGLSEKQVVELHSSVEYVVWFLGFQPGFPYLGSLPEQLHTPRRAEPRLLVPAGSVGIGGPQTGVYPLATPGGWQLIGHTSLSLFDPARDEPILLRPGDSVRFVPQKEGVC
UniProt P45532: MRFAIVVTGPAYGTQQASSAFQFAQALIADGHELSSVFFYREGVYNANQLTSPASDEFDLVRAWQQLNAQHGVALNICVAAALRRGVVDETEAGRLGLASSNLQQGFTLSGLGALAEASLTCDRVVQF

[1] = target: T2, YheL-GFP11 (last subunit of the YheNML and YheML polycistrons) (E. coli) (UniProt P45530); test: tripartite split-GFP in E. coli colonies; GFP10 on YheN, GFP11 on YheL, untagged YheM co-expressed
T2 sequence: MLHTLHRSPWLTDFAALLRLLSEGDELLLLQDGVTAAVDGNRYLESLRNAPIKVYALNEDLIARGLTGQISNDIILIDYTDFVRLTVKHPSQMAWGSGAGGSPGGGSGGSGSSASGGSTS

binding (YBGK-GFP11 (E. coli)) | binding [1] | Substance
binds |  | GFP10-YBGJ (from UniProt P0AAV4 1-218)
 | binds | GFP10-YheN (first subunit of the YheNML polycistron) (from UniProt P45532 1-128)

— patent US20150099271A1
